# Part of at least one peptide drawing is inferred or uncertain, most often the ends. Peptide text beside a SMILES is read from it.
# Experiments:
# MRSA [1] = experiment: Mouse model of MRSA sepsis, TP3; type: in vivo, Balb/c mice
# Procedure: Female Balb/c mice (6-8 weeks old) were injected intraperitoneally with 10^6 CFU MRSA per mouse. Ten minutes after MRSA injection, mice were injected intraperitoneally with vancomycin (0.01 mg/g mouse body weight), methicilin (0.01 mg/g mouse body weight), or TP3 (0.005 mg/g mouse body weight). In a second set of experiments, mice were given intraperitoneal injections of TP3 (0.005 mg/g mouse body weight) at 10, 60, 120, or 180 min after MRSA injection. The survival rate and status were recorded every 24 h for up to 192 h. To examine bacterial dissemination, mice were sacrificed at 48 h after injection with antibiotics or TP3, and the bacterial numbers in blood, peritoneum, spleen, liver, and mesenteric lymph nodes were recorded. Colony counts from the diluted bacterial solutions were expressed relative to those at the start of treatment. These experiments consisted of four groups, and each group contained 5 mice.
# [2] = tested on: TNF-α, IL-6, CXCL5 gene expression; experiment: Real-time PCR of cytokine genes in wound tissue, TP3; type: in vivo; conditions: MRSA-infected mice, 1, 3 and 5 days, vs positive controls
# MRSA [3] = conditions: MRSA suspended in 10 mM sodium phosphate buffer, pH 7.2
smiles,measurement,setting,value
"CC[C@H](C)[C@H](NC(=O)[C@H](CC(C)C)NC(=O)[C@H](CO)NC(=O)[C@H](Cc1c[nH]cn1)NC(=O)[C@@H](NC(=O)[C@H](Cc1c[nH]cn1)NC(=O)[C@H](CCCCN)NC(=O)CNC(=O)[C@@H](NC(=O)[C@H](CO)NC(=O)[C@H](Cc1ccccc1)NC(=O)[C@H](CC(C)C)NC(=O)CNC(=O)CNC(=O)[C@@H](NC(=O)[C@@H](NC(=O)[C@H](Cc1c[nH]cn1)NC(=O)[C@H](Cc1c[nH]cn1)NC(=O)[C@@H](NC(=O)[C@@H](N)Cc1ccccc1)[C@@H](C)CC)[C@@H](C)CC)[C@@H](C)CC)C(C)C)[C@@H](C)CC)C(=O)N[C@@H](Cc1c[nH]cn1)C(=O)NCC(=O)N[C@@H](Cc1c[nH]cn1)C(=O)O [TP3, Tilapia piscidin 3] (H-FIHHIIGGLFSVGKHIHSLIHGH-OH)",survival rate,"MRSA [1]; 8 days after MRSA infection, i.p. 10 min after MRSA, TP3 0.005 mg/g, vancomycin and methicillin 0.01 mg/g",100%
same,survival rate,MRSA [1]; TP3 0.005 mg/g injected 10 min after MRSA,100%
same,survival rate,MRSA [1]; TP3 0.005 mg/g injected 60 min after MRSA,80%
same,survival rate,MRSA [1]; TP3 0.005 mg/g injected 120 min after MRSA,60%
same,survival rate,MRSA [1]; TP3 0.005 mg/g injected 180 min after MRSA,40%
same,% lethality,"MRSA [1]; monitored for 2 day after injection, MRSA 1 × 10^6 CFU i.p.",0^A %
same,induction of CXCL5,[2],decreased induction
same,induction of IL-6,[2],decreased induction
same,induction of TNF-α,[2],decreased induction
same,concentration that effectively killed MRSA,MRSA [3],> 3.9 µg/mL

# — patent publication US9925235B2, “Tilapia piscidins for use in enhancement of wound healing” (Academia Sinica, priority 2015, dated 2018)
